From the supplement of paper PMC10849652
The list shows a part of the results. Residues, ends and D or L forms follow the SMILES beside them. *: point of attachment. Cbz = O=C(OCc1ccccc1)*

Chains of the proteins cited; added tags and fusions are not shown. Lines headed by an entry give the natural chain unless they say otherwise; changes in a name come on top.
UniProt Q99700, whole entry, looked up: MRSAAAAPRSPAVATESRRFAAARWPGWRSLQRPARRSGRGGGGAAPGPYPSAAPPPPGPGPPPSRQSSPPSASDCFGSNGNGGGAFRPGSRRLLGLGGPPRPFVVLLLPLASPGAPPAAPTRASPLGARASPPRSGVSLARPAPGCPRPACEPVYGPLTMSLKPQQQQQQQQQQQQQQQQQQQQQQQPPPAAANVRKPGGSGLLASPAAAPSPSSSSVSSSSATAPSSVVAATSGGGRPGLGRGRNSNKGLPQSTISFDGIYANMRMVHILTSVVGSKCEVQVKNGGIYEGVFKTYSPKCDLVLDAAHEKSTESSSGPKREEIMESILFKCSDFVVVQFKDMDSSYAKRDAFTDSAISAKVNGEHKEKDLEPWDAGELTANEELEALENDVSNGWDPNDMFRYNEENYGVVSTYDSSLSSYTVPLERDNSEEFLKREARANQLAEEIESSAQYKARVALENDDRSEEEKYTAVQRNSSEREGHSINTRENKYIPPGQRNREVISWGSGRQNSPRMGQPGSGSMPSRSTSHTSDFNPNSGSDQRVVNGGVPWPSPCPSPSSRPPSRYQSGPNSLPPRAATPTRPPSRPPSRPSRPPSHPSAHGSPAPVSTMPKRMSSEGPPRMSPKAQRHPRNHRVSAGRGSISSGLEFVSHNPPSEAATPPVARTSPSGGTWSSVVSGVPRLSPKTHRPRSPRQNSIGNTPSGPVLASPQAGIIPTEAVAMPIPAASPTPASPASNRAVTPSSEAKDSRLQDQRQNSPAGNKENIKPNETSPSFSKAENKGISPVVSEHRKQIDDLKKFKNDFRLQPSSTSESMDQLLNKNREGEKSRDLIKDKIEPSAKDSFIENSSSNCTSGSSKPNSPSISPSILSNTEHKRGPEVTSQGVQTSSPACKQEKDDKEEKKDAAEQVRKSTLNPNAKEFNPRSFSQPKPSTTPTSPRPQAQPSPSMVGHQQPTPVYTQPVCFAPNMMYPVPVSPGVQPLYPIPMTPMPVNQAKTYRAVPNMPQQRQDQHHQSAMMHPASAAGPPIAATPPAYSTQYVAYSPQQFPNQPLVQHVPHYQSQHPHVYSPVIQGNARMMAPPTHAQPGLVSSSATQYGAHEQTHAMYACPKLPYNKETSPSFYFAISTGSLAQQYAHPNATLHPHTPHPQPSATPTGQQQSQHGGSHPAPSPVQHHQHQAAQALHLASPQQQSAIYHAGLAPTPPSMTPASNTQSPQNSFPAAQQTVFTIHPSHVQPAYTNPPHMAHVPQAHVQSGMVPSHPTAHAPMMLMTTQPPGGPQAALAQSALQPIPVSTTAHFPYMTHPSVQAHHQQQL
UniProt Q14692: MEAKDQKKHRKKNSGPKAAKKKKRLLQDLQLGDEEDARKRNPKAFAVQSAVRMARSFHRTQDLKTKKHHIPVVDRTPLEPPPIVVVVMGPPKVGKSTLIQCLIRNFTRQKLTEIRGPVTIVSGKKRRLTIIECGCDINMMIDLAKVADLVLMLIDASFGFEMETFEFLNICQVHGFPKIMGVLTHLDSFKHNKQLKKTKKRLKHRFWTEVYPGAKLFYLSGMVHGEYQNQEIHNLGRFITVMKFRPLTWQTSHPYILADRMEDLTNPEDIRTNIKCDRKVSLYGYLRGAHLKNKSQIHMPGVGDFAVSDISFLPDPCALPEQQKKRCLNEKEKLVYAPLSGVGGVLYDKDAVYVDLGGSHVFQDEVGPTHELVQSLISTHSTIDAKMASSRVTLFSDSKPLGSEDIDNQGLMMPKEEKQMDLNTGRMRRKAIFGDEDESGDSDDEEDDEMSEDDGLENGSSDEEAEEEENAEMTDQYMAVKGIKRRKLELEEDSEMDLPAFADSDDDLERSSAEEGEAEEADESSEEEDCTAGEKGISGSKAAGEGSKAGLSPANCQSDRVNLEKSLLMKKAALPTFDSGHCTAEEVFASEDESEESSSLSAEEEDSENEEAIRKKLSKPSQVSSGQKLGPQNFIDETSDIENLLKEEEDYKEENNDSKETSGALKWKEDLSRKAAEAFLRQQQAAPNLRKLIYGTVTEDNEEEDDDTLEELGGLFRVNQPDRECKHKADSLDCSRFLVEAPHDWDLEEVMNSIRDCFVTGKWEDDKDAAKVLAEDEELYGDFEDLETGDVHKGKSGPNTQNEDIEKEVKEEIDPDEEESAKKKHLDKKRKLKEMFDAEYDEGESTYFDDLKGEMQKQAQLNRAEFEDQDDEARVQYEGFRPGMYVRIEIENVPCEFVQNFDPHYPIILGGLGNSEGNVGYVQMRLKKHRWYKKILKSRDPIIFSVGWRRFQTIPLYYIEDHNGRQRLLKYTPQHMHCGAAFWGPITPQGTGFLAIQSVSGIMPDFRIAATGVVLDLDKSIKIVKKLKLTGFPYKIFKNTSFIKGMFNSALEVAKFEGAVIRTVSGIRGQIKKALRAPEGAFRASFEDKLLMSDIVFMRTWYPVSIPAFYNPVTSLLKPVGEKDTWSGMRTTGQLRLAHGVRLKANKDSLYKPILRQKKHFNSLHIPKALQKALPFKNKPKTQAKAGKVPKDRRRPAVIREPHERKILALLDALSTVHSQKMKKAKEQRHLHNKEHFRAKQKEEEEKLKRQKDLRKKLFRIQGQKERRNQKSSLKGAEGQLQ
UniProt Q9NWV8, whole entry, looked up: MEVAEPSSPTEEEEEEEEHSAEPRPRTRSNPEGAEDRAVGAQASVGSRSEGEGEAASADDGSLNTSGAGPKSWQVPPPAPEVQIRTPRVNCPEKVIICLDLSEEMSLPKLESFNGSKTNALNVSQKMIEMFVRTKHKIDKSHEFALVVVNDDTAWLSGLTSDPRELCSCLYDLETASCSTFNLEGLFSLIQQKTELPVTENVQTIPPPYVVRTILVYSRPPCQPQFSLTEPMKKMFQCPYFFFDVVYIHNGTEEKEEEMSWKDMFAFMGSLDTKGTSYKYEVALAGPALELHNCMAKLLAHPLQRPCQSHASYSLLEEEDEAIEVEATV
UniProt O95817, whole entry, looked up: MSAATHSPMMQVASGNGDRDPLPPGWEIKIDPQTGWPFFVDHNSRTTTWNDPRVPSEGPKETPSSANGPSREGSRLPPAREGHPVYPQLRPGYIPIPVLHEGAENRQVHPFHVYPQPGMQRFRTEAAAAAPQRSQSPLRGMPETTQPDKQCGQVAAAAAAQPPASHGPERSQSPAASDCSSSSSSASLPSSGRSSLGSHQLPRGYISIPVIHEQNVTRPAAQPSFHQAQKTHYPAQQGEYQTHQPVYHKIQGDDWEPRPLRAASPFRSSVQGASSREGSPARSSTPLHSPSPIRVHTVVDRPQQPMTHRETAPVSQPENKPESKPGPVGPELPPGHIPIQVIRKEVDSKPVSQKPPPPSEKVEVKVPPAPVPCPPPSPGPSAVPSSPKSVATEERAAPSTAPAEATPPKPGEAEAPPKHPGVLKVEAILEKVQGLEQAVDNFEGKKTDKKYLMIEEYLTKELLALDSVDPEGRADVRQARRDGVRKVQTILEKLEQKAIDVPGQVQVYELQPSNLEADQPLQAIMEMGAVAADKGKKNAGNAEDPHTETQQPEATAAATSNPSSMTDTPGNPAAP
UniProt Q96GX2: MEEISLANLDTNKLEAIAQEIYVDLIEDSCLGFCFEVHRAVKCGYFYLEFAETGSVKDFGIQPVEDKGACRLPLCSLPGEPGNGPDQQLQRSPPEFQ
UniProt P46736, whole entry, looked up: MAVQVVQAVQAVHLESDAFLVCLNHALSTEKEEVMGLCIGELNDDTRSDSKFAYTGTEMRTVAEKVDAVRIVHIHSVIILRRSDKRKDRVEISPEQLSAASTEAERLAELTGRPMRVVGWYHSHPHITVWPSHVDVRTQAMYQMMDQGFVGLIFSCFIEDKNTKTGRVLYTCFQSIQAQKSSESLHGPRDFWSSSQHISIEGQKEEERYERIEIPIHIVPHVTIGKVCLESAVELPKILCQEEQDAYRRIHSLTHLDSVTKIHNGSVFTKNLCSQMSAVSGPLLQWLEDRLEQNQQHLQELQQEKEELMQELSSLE
UniProt Q53S33: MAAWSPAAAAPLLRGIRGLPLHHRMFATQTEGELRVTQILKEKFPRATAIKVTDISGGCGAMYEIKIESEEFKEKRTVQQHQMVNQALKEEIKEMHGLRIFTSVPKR
UniProt P21953: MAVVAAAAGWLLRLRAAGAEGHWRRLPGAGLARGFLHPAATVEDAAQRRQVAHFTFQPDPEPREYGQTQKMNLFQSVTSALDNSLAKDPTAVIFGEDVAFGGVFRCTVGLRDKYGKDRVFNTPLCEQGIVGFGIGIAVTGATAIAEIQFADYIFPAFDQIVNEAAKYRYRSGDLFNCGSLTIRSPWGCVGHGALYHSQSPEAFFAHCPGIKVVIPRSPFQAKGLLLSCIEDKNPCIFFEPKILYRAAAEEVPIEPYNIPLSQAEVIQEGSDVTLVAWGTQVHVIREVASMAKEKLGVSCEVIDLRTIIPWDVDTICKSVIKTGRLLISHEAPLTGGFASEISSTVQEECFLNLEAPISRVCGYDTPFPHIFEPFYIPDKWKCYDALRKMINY
UniProt Q9BXK5, whole entry, looked up: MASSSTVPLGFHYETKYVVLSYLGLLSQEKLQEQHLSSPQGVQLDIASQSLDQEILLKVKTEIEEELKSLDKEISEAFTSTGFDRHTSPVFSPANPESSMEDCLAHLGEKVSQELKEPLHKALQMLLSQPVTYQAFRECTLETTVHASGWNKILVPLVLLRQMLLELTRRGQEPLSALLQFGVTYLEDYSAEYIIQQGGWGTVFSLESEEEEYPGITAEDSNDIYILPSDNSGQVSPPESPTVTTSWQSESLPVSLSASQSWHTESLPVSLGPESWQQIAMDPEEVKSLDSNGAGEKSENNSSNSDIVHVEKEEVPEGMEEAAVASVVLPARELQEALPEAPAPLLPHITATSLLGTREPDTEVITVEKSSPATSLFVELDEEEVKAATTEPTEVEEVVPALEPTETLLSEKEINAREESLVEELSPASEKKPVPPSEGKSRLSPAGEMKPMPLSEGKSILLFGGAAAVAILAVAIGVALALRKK
UniProt Q8TD16, whole entry, looked up: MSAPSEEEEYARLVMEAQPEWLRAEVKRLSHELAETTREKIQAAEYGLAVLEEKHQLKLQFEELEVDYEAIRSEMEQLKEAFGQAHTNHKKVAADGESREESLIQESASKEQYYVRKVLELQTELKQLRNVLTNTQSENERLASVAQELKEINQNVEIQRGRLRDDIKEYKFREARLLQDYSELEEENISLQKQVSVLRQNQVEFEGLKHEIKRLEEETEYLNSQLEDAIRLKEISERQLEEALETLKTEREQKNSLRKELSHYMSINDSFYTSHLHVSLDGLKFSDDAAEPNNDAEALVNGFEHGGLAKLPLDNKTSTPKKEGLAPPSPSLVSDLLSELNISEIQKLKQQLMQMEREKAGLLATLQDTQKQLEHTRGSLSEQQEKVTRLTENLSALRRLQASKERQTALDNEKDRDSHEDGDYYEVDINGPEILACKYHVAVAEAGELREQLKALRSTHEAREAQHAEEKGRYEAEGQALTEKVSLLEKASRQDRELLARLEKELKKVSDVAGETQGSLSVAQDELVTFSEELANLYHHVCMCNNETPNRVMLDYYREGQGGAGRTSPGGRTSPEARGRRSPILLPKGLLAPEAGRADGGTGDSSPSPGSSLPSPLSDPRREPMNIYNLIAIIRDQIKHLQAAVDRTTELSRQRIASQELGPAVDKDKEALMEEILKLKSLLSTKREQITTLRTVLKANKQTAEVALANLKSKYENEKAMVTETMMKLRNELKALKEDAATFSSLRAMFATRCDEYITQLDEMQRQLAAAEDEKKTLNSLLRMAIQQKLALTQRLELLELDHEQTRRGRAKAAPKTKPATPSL
UniProt Q92843: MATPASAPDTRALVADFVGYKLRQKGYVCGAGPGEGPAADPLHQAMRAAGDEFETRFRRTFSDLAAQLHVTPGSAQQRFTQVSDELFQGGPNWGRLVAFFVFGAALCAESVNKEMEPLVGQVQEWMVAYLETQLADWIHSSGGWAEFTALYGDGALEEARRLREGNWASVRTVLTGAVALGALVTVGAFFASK
UniProt Q8TDH9: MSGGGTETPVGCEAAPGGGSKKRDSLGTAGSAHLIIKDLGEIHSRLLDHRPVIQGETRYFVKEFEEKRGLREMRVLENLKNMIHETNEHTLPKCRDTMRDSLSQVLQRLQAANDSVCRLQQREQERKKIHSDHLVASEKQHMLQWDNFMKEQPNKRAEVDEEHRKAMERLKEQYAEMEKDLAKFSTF
UniProt O95429: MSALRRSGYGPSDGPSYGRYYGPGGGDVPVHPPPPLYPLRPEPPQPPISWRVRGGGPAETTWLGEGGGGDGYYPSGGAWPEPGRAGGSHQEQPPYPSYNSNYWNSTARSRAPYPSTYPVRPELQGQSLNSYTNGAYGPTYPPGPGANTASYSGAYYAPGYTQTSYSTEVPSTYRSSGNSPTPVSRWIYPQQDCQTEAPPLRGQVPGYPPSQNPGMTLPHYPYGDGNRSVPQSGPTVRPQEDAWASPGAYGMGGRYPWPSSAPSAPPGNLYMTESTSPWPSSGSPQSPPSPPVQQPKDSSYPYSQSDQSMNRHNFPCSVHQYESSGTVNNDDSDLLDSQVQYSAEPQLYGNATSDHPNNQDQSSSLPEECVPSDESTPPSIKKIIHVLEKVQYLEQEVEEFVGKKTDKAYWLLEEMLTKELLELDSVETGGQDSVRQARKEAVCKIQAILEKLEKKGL

How the values were obtained:
Test in all cases: log2 fold change, soluble protein after heating vs DMSO (PISA); higher = thermal stabilisation; K562 cells, 10 uM, 30 min; active = over 0.2 and 3.5 SD of the protein, either way, in both replicates (recomputed)
IRAK-1-4 Inhibitor I = compound: C1COCCN1CCN2C3=CC=CC=C3N=C2NC(=O)C4=CC(=CC=C4)[N+](=O)[O-] [IRAK-1-4 Inhibitor I]
Method in brief: (§1)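 K562 cells at 2×10^6 cells/mL were exposed to 10 μM compound for 30 min, then aliquots were heated for 3 min across 48°C-58°C, pooled, and extracted in PBS containing 0.5% NP-40 at 4°C. The supernatant after 21,000xg for 90 min was taken as soluble protein and measured by TMTpro 16plex LC-MS/MS with channel sums equalised. Thermal stability is reported relative to control samples, with values from duplicates. Fold changes are given on a log2 scale.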

ibrutinib = compound: C=CC(=O)N1CCC[C@@H](n2nc(-c3ccc(Oc4ccccc4)cc3)c3c(N)ncnc32)C1 [ibrutinib]
Method in brief: as §1

[1] = compound: CC(=O)c1cnc2ccc(-c3cc(Cl)c(O)c(Cl)c3)nc2c1N[C@H]1CC[C@H](CN(C)C)CC1
Method in brief: as §1

ralimetinib = compound: CC(C)(C)Cn1c(N)nc2ccc(-c3[nH]c(C(C)(C)C)nc3-c3ccc(F)cc3)nc21 [ralimetinib]
Method in brief: as §1

[2] = compound: CC(C)(O)CC(=O)NCCn1ccc2ncnc(Nc3ccc(Oc4cccc(C(F)(F)F)c4)c(Cl)c3)c21
Method in brief: as §1

[3] = compound: CC(C)C1=C2N=C(C=C(N2N=C1)NCC3=CC=CC=C3)NCCCCCCN
Method in brief: as §1

[4] = compound: CC(C)C[C@@H](C=O)NC(=O)[C@H](CC(C)C)NC(=O)[C@H](CC(C)C)NC(=O)OCc1ccccc1
Method in brief: as §1

pinometostat = compound: CC(C)N(C[C@H]1O[C@@H](n2cnc3c(N)ncnc32)[C@H](O)[C@@H]1O)[C@H]1C[C@@H](CCc2nc3cc(C(C)(C)C)ccc3[nH]2)C1 [pinometostat]
Method in brief: as §1

[5] = compound: CC1=C(C(CC(=O)N1)C2=CC=C(C=C2)C(F)(F)F)C(=O)NC3=C(C=C4C(=C3)C=NN4)F
Method in brief: as §1

[6] = compound: CC1=C(C2=C(C=C1)C(=O)C3=CC=CC=C3N2CCCN)C
Method in brief: as §1

[7] = compound: CC1=C(C=C(C=C1)NC(=O)C2=CC(=CC=C2)C(C)(C)C#N)NC3=CC4=C(C=C3)N=CN(C4=O)C
Method in brief: as §1

[8] = compound: CC1=C(C=C(C=C1)NC(=O)C2=CC(=CC=C2)N(C)C)NC(=O)C3=CC=C(C=C3)O
Method in brief: as §1

[9] = compound: CC1=CC=C(C=C1)SC2=C3C=C(SC3=CN=C2)C(=O)N
Method in brief: as §1

[10] = compound: CC1=NC(=CC=C1)C2=C(N=C(N2)C(C)(C)C)C3=CC4=NC=CN=C4C=C3
Method in brief: as §1

Nexturastat A = compound: CCCCN(Cc1ccc(C(=O)NO)cc1)C(=O)Nc1ccccc1 [Nexturastat A]
Method in brief: as §1

vemurafenib = compound: CCCS(=O)(=O)Nc1ccc(F)c(C(=O)c2c[nH]c3ncc(-c4ccc(Cl)cc4)cc23)c1F [vemurafenib]
Method in brief: as §1

[11] = compound: CCCS(=O)(=O)Nc1ccc(F)c(C(=O)c2c[nH]c3ncc(Cl)cc23)c1F
Method in brief: as §1

[12] = compound: CCCc1cc(C)[nH]c(=O)c1CNC(=O)c1cc(-c2ccnc(N3CCN(C)CC3)c2)cc2c1cnn2C(C)C
Method in brief: as §1

givinostat = compound: CCN(CC)Cc1ccc2cc(COC(=O)Nc3ccc(C(=O)NO)cc3)ccc2c1 [givinostat]
Method in brief: as §1

barasertib = compound: CCN(CCCOc1ccc2c(Nc3cc(CC(=O)Nc4cccc(F)c4)[nH]n3)ncnc2c1)CCOP(=O)(O)O [barasertib]
Method in brief: as §1

Measured: log2 fold change

ATXN2 (UniProt Q99700)
inactive: IRAK-1-4 Inhibitor I 0.004 | ibrutinib 0.026 | [1] -0.039 | ralimetinib 0.009 | [2] 0.025 | [3] -0.013 | [4] -0.001 | pinometostat -0.001 | [5] -0.003 | [6] 0.119 | [7] -0.035 | [8] 0.029 | [9] -0.013 | [10] 0.021 | Nexturastat A 0.048 | vemurafenib 0.009 | [11] -0.011 | [12] -0.027 | givinostat -0.004 | barasertib 0.014

BOD1L1 (UniProt Q8NFC6)
inactive: IRAK-1-4 Inhibitor I -0.01 | ibrutinib -0.012 | [1] -0.204 | ralimetinib 0.037 | [2] 0.056 | [3] 0.024 | [4] 0.044 | pinometostat 0.05 | [5] -0.009 | [6] 0.158 | [7] -0.03 | [8] 0.019 | [9] -0.044 | [10] -0.056 | Nexturastat A 0.08 | vemurafenib -0.013 | [11] -0.02 | [12] 0.022 | givinostat -0.009 | barasertib 0

BMS1 (UniProt Q14692)
inactive: IRAK-1-4 Inhibitor I -0.11 | ibrutinib 0.02 | [1] 0.094 | ralimetinib 0.153 | [2] -0.001 | [3] 0.011 | [4] 0.105 | pinometostat 0.335 | [5] 0 | [6] -0.443 | [7] 0 | [8] 0.001 | [9] -0.07 | [10] -0.119 | Nexturastat A 0.19 | vemurafenib -0.079 | [11] -0.082 | [12] 0.148 | givinostat 0.041 | barasertib -0.116

BABAM1 (UniProt Q9NWV8)
inactive: IRAK-1-4 Inhibitor I -0.013 | ibrutinib -0.015 | [1] 0.08 | ralimetinib -0.001 | [2] 0.008 | [3] -0.014 | [4] 0.072 | pinometostat -0.025 | [5] 0.025 | [6] -0.041 | [7] -0.051 | [8] 0.006 | [9] -0.015 | [10] 0.056 | Nexturastat A -0.008 | vemurafenib -0.003 | [11] -0.012 | [12] 0.022 | givinostat -0.125 | barasertib -0.012

BAG3 (UniProt O95817)
inactive: IRAK-1-4 Inhibitor I 0.021 | ibrutinib 0.017 | [1] -0.014 | ralimetinib -0.042 | [2] 0 | [3] 0.013 | [4] 0.056 | pinometostat -0.01 | [5] 0.006 | [6] -0.037 | [7] -0.012 | [8] -0.021 | [9] -0.055 | [10] 0.012 | Nexturastat A 0.037 | vemurafenib -0.016 | [11] -0.049 | [12] -0.029 | givinostat -0.009 | barasertib -0.016

ATXN7L3B (UniProt Q96GX2)
inactive: IRAK-1-4 Inhibitor I -0.001 | ibrutinib 0.01 | [1] -0.009 | ralimetinib -0.095 | [2] 0 | [3] 0.058 | [4] 0 | pinometostat 0.015 | [5] 0.028 | [6] 0.085 | [7] -0.051 | [8] 0.039 | [9] -0.016 | [10] -0.051 | Nexturastat A 0.101 | vemurafenib -0.048 | [11] -0.024 | [12] -0.02 | givinostat 0.002 | barasertib 0.029

BRCC3 (UniProt P46736)
inactive: IRAK-1-4 Inhibitor I 0.01 | ibrutinib -0.011 | [1] -0.026 | ralimetinib -0.03 | [2] -0.019 | [3] 0.072 | [4] -0.009 | pinometostat 0.047 | [5] 0.027 | [6] 0.061 | [7] -0.061 | [8] 0.007 | [9] -0.009 | [10] -0.066 | Nexturastat A -0.043 | vemurafenib -0.037 | [11] -0.014 | [12] -0.041 | givinostat -0.016 | barasertib -0.046

BOLA3 (UniProt Q53S33)
inactive: IRAK-1-4 Inhibitor I 0.034 | ibrutinib -0.001 | [1] 0.01 | ralimetinib -0.085 | [2] -0.027 | [3] 0.014 | [4] -0.013 | pinometostat -0.036 | [5] 0.022 | [6] -0.009 | [7] -0.006 | [8] -0.001 | [9] 0.031 | [10] 0.012 | Nexturastat A -0.031 | vemurafenib -0.003 | [11] -0.009 | [12] -0.025 | givinostat -0.009 | barasertib 0.005

BCKDHB (UniProt P21953)
inactive: IRAK-1-4 Inhibitor I 0.072 | ibrutinib -0.039 | [1] 0.071 | ralimetinib 0.015 | [2] -0.008 | [3] -0.031 | [4] 0.016 | pinometostat 0.019 | [5] 0.068 | [6] -0.034 | [7] 0.118 | [8] -0.023 | [9] 0.03 | [10] 0.016 | Nexturastat A 0.086 | vemurafenib 0.041 | [11] 0.034 | [12] -0.002 | givinostat -0.085 | barasertib 0.055

BCL2L13 (UniProt Q9BXK5)
inactive: IRAK-1-4 Inhibitor I 0.001 | ibrutinib -0.009 | [1] -0.013 | ralimetinib -0.057 | [2] 0 | [3] -0.044 | [4] -0.003 | pinometostat -0.002 | [5] -0.001 | [6] -0.068 | [7] 0.033 | [8] 0.029 | [9] 0.004 | [10] 0.039 | Nexturastat A -0.031 | vemurafenib 0.003 | [11] 0.013 | [12] -0.014 | givinostat 0.03 | barasertib -0.019

BICD2 isoform 2 (UniProt Q8TD16)
inactive: IRAK-1-4 Inhibitor I -0.008 | ibrutinib 0 | [1] -0.046 | ralimetinib 0.078 | [2] -0.078 | [3] -0.028 | [4] -0.004 | pinometostat -0.058 | [5] 0.009 | [6] 0.036 | [7] 0.016 | [8] -0.057 | [9] -0.012 | [10] 0.043 | Nexturastat A 0.012 | vemurafenib 0.043 | [11] 0.019 | [12] 0.034 | givinostat 0.059 | barasertib 0.092

BCL2L2 isoform 2 (UniProt Q92843)
inactive: IRAK-1-4 Inhibitor I -0.107 | ibrutinib 0.07 | [1] -0.02 | ralimetinib 0.068 | [2] 0.132 | [3] 0.162 | [4] -0.006 | pinometostat 0.017 | [5] 0.004 | [6] 0.055 | [7] 0.07 | [8] 0.044 | [9] -0.017 | [10] 0.087 | Nexturastat A 0.073 | vemurafenib -0.003 | [11] -0.009 | [12] -0.031 | givinostat -0.028 | barasertib -0.043

BLOC1S5 (UniProt Q8TDH9)
inactive: IRAK-1-4 Inhibitor I 0.058 | ibrutinib -0.026 | [1] -0.033 | ralimetinib -0.034 | [2] -0.071 | [3] 0.02 | [4] 0.006 | pinometostat 0.025 | [5] -0.074 | [6] 0.058 | [7] -0.027 | [8] 0.006 | [9] -0.047 | [10] 0.037 | Nexturastat A -0.051 | vemurafenib 0.029 | [11] 0.001 | [12] -0.015 | givinostat -0.046 | barasertib -0.028

BAG4 (UniProt O95429)
inactive: IRAK-1-4 Inhibitor I -0.005 | ibrutinib -0.016 | [1] -0.127 | ralimetinib 0.008 | [2] 0.056 | [3] -0.08 | [4] -0.028 | pinometostat -0.026 | [5] -0.011 | [6] -0.111 | [7] -0.052 | [8] 0.026 | [9] -0.02 | [10] 0.043 | Nexturastat A 0 | vemurafenib 0.015 | [11] 0.019 | [12] -0.045 | givinostat -0.057 | barasertib -0.006

BAG5 isoform 2 (UniProt Q9UL15)
inactive: IRAK-1-4 Inhibitor I 0.037 | ibrutinib 0.01 | [1] -0.038 | ralimetinib 0.003 | [2] 0.005 | [3] 0.019 | [4] 0.004 | pinometostat 0.032 | [5] -0.084 | [6] 0.063 | [7] -0.047 | [8] 0.038 | [9] 0.083 | [10] 0.035 | Nexturastat A 0.005 | vemurafenib 0.07 | [11] 0.073 | [12] -0.022 | givinostat -0.011 | barasertib 0.057

Looked up one by one from the list above, 2 records:
BICD2 isoform 2 (UniProt Q8TD16)
inactive: IRAK-1-4 Inhibitor I -0.008 | ibrutinib 0 | [1] -0.046 | ralimetinib 0.078 | [2] -0.078 | [3] -0.028 | [4] -0.004 | pinometostat -0.058 | [5] 0.009 | [6] 0.036 | [7] 0.016 | [8] -0.057 | [9] -0.012 | [10] 0.043 | Nexturastat A 0.012 | vemurafenib 0.043 | [11] 0.019 | [12] 0.034 | givinostat 0.059 | barasertib 0.092

BCL2L2 isoform 2 (UniProt Q92843)
inactive: IRAK-1-4 Inhibitor I -0.107 | ibrutinib 0.07 | [1] -0.02 | ralimetinib 0.068 | [2] 0.132 | [3] 0.162 | [4] -0.006 | pinometostat 0.017 | [5] 0.004 | [6] 0.055 | [7] 0.07 | [8] 0.044 | [9] -0.017 | [10] 0.087 | Nexturastat A 0.073 | vemurafenib -0.003 | [11] -0.009 | [12] -0.031 | givinostat -0.028 | barasertib -0.043

(further entries)

BNIP1 (UniProt Q12981)
inactive: IRAK-1-4 Inhibitor I 0.032 | ibrutinib -0.021 | [1] -0.023 | ralimetinib -0.026 | [2] 0.002 | [3] -0.11 | [4] -0.005 | pinometostat 0.011 | [5] 0.019 | [6] 0.088 | [7] 0.005 | [8] 0.022 | [9] -0.008 | [10] 0.005 | Nexturastat A -0.049 | vemurafenib 0.009 | [11] 0.029 | [12] -0.051 | givinostat 0.038 | barasertib 0.019
